Source: ChEMBL document CHEMBL3988442, “University of Dundee, Small-Polar-MMV Screening Library” (2021).

Amino acid sequences for entries named in this document (tags omitted). Residues count along the entry.
UniProt P9WPC5, whole entry: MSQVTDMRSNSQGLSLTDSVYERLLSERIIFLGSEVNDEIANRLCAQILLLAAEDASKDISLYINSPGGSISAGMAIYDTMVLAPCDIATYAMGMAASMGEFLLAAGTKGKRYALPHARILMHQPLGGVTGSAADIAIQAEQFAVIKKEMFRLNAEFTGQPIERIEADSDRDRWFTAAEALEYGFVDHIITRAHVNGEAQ
UniProt P9WPC3, whole entry partner: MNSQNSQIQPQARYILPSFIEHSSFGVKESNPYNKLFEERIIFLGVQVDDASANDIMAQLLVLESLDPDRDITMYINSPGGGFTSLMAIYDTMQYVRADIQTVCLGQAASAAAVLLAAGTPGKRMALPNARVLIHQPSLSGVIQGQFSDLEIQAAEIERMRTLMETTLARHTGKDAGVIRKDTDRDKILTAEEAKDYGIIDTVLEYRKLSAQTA
UniProt A4I591, 1-473: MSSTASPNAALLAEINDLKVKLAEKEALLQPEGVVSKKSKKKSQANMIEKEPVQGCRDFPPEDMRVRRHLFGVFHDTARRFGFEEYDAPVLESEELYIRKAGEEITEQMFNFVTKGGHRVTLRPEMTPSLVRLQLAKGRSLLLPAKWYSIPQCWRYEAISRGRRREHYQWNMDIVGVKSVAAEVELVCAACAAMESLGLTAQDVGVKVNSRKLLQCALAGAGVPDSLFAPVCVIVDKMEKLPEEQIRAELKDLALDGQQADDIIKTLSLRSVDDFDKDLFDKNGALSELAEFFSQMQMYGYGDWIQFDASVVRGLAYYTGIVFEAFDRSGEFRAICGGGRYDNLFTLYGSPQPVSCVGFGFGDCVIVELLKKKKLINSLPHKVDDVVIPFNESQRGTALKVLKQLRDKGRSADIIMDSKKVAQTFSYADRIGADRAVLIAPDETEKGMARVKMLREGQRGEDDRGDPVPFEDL

ClpP1P2: 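ClpP1P2, Mycobacterium tuberculosis (UniProt P9WPC5 and UniProt P9WPC3). Protease assay of ClpP1P2, read by the AMC dye that it sets free. Compounds at 50 µM. Direction is inferred from only a few compounds that gave an IC50; most scored high, so higher reads as stronger inhibition. Most other retested compounds had strongly negative values. About 69,000 compounds were tested under these conditions; 0.015% (about 10) showed 50% or more at least once.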
LiHisRS: 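Enzyme assay of histidyl-tRNA synthetase; the read-out is not stated. Target: Histidine-tRNA ligase, Leishmania infantum (UniProt A4I591). Tested at 30 µM. The record gives no direction; compounds that gave an IC50 in retests scored well above the rest, so higher reads as stronger inhibition. The assay is labelled LdHisRS but filed under L. infantum. About 69,000 compounds were tested under these conditions; 0.6% (about 410) showed 50% or more at least once.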

The filed quantity is “Percent Effect” (%).
How 0% and 100% were set is not recorded. Most values in the screen are low, and negative values occur.
Compounds were drawn at random from those tested, without regard to their results.

| Compound | ClpP1P2 | LiHisRS |
|---|---|---|
| `COc1ccc(NC(C)c2nnnn2-c2ccccc2)cn1` (configuration not stated) | -5.077% | 24.69% |
| `Cc1nn(C)c(Oc2ccc(Cl)cc2)c1CN1CCOC(CN)C1` (configuration not stated) | -4.007% | 2.632% |
| `CCOCCCNC(=O)NCc1c(C)nn(C)c1C` | -4.888% | 1.37% |
| `CCC(CC)C(=O)NCCC(=O)N1CCN(c2ccccn2)CC1` | 6.294% | 20.22% |
| `Cc1ncc(CNC(=O)Nc2cc(C(F)(F)F)c[nH]c2=O)s1` | -0.9253% | 14.42% |
| `CC(Cc1ccccc1F)C(=O)Nc1ccc(OCCC(N)=O)cc1` (configuration not stated) | -7.213% | 26.51% |
| `CCOCCc1nc(Cc2ccccc2)n[nH]1` | 5.409% | 22.45% |
| `O=C(c1cnc(-c2ccccc2)s1)N1CCOC2(CCCC2)C1` | -2.916% | 6.806% |
| `COCCC(=O)N1CC2(CCN(Cc3ccoc3)C2)C1` | 19.07% | 2.19% |
| `Cc1ccccc1C(=O)Nc1cnn(CCN2CCOCC2)c1` | -19.27% | 25% |
| `CC(O)c1cccc(OCc2ccon2)c1` (configuration not stated) | -9.537% | 14.16% |
| `O=C(c1cnc(COc2ccccc2)nc1O)N1CCC(F)(F)CC1` | 2.968% | 12.12% |
| `CN(Cc1cn2c(n1)CN(Cc1nccs1)CC2)Cc1ccco1` | 3.219% | 1% |
| `COc1ccccc1-c1cc(C(=O)N(C)C)nc2c1cnn2C` | 20.35% | 8.276% |
| `C[C@]1(O)CCN(Cc2nccs2)C[C@@H]1Oc1cccc(F)c1` | -2.07% | 15.94% |
| `CCC(=O)NC(c1cccnc1)c1cc(C)ccc1C` (configuration not stated) | -13.09% | 18.48% |
| `Cc1nn(-c2ccccc2)c(C)c1CN1CCNCC1` | -10.35% | -5.172% |
| `COc1ccc(CN2CCC3(CCCN(C)C3=O)C2)c(OC)c1C` (configuration not stated) | -0.636% | 15.05% |
| `Cc1cccc(C2(C(=O)NCC(C)CN3CCCC3=O)CC2)c1` (configuration not stated) | 2.924% | 2.941% |
| `N#Cc1cccc(S(=O)(=O)NC(=O)C2CC(c3ccccc3)=NO2)c1` (configuration not stated) | -12.04% | 12.36% |
| `CNC(=O)CCc1cc(C)nc(C2CCCN2)n1` (configuration not stated) | 6.177% | -5.556% |
| `Cc1nc2ncccn2c1C(=O)N1CCc2[nH]cnc2C1` | -0.6021% | 14.67% |
| `CCOc1cncc(N(C)CC(=O)NC)n1` | 0.5282% | 10% |
| `COc1ccccc1C(=O)NC[C@H]1COCc2nc3c(C)cccc3n21` | -6.963% | 25.68% |
| `Cn1cnnc1-c1ccnc(NCc2ccc3c(c2)OCCO3)c1` | -9.064% | 8.108% |
| `COc1cc2cc3c(nc2cc1OC)OCCN(Cc1ccco1)C3` | -20.31% | 9.929% |
| `Cc1cnn(CC2CCCN2CCCS(=O)(=O)N(C)C)c1` (configuration not stated) | -16.15% | 12.07% |
| `CN1CCC(N2CC[C@@H]3[C@@H](CCC(=O)N3CCC3=CCCCC3)C2)CC1` | -6.946% | 9.375% |
| `c1cncc(CNc2ccccc2-c2nn[nH]n2)c1` | -22.87% | 11.11% |
| `Cc1cnn(CCNCc2ccccc2OCc2cccnc2)c1` | -4.76% | 5.405% |
| `CC(C)c1nc(CN(C)Cc2ccc(F)cc2)cs1` | -3.192% | 20.78% |
| `Cc1nc(CN2CCN(C(=O)NC(C)c3cccnc3)CC2)cs1` (configuration not stated) | -11.93% | 16.07% |
| `CCCSc1ccccc1NC(=O)N1CCC(N2CCSCC2)CC1` | -2.552% | 15.49% |
| `Cc1ccccc1C1CCN(CCn2cc(-c3nccs3)nn2)C1` (configuration not stated) | 13.52% | 11.43% |
| `Cc1[nH]c2nc(CNc3cccc(Cl)c3)nn2c(=O)c1C` | -5.148% | 22.83% |
| `CCn1cc(NC(=O)NCCc2ccc3c(c2)OCCO3)cn1` | -11.58% | 15.38% |
| `CN1CC(=O)N(c2ccccc2)CC12CCN(C(=O)CC1CC1)C2` (configuration not stated) | -8.935% | -0.885% |
| `Cc1nc(-c2cccc(C#N)c2)nn1CC1(O)CCCCC1` | 10.12% | 9.677% |
| `COc1cccc(-c2cc(NCCO)nc3[nH]ccc23)n1` | -55.41% | 20.97% |
| `O=C(Nc1nncs1)NC1CCOc2ccccc21` (configuration not stated) | 4.835% | 5.714% |
| `Cc1nnc(NC(=O)CSCc2cc(=O)n3ccccc3n2)s1` | -11% | 6.849% |

The last 4 entries again:

Compound,ClpP1P2,LiHisRS
Cc1nc(-c2cccc(C#N)c2)nn1CC1(O)CCCCC1,10.12%,9.677%
COc1cccc(-c2cc(NCCO)nc3[nH]ccc23)n1,-55.41%,20.97%
O=C(Nc1nncs1)NC1CCOc2ccccc21 (configuration not stated),4.835%,5.714%
Cc1nnc(NC(=O)CSCc2cc(=O)n3ccccc3n2)s1,-11%,6.849%